For some assays here: Strings that start with PEPTIDE1 are HELM notation: dots part the residues, brackets hold end groups and non-standard residues. Square brackets hold non-standard residues; d marks the D form. Ends that are not written are not given here. Peptide text beside a SMILES is read from it.
Key:
human erythrocytes = test: Hemolysis assay; type: cell-based; conditions: ratio of hemolysis IC50 to MIC90
Experimental: Commercially available human blood (IWB1K2E10ML, Innovative Research Inc., Novi, MI, USA) was used to produce a 50% haematocrit solution by mixing at 1:1 with PBS 1× (P5493, 1 L, Sigma, St. Louis, MO, USA). Three consecutive PBS 1× washes plus centrifugation at 2600 rpm for 10 min steps were performed. Finally, a 2% erythrocyte solution was prepared in PBS 1× and chilled on ice until used. Polypropylene plates were filled with 50 µL PBS 1× per well for the samples and 50 µL 2% Triton X-100 (TX-100, 9002-93-1, 100 mL, Sigma, St. Louis, MO, USA) for the hemolysis controls. A solution at 4× final concentration of the assay of each peptide was prepared in PBS and 50 µL were added to the first column of each plate, followed by serial dilutions in the microplate. Then, 50 µL of the 2% erythrocyte solution was added to each plate. […] controls consisted in a 1:1 mix of PBS 1× and erythrocytes at 2%. Plates were incubated at 37 °C for 4 h and then centrifuged at 1500 rpm for 5 min. Eighty µL were extracted from the supernatant of each well carefully and transferred to a polystyrene flat bottom plate for reading and read at 450 nm in an Epoch microplate spectrophotometer (Epoch™, BioTek, Winooski, VT, USA).
The therapeutic index is a widely accepted parameter to represent the specificity of antimicrobial peptides for prokaryotic versus eukaryotic cells. It is calculated by the ratio of HC50 (hemolytic activity) and MIC (antimicrobial activity); thus, larger values of therapeutic index indicate greater specificity for prokaryotic cells.

[1] = Fmoc solid-phase peptide synthesis; Wang resin preloaded with Tyr; DIC/Oxyma; conditions: whole synthesis, 214 nm, scale 0.10 mmol

Compound	Therapeutic Index (IC50/MIC90) P. aeruginosa (human erythrocytes)	crude HPLC purity [1] [% pure]
CC[C@@H](C)[C@@H](NC(=O)[C@@H](CCCCN)NC(=O)[C@@H](CCCCN)NC(=O)[C@@H](CC(C)C)NC(=O)[C@@H](CCCCN)NC(=O)[C@@H](CCC(=O)O)NC(=O)[C@@H](CCCCN)NC(=O)[C@H](NC(=O)[C@@H](CCCCN)NC(=O)[C@@H](CC(N)=O)NC(=O)[C@@H](CCCNC(=N)N)NC(=O)[C@@H](Cc1ccccc1)NC(=O)[C@@H](CCCCN)NC(=O)[C@@H](CCCNC(=N)N)NC(=O)[C@@H](CC(C)C)NC(=O)[C@@H](CCCNC(=N)N)NC(=O)[C@@H](CCCCN)NC(=O)[C@@H](CCCNC(=N)N)NC(=O)[C@@H](CC(C)C)NC(=O)CN)[C@H](C)CC)C(=O)NCC(=O)N[C@H](CCC(N)=O)C(=O)N[C@H](CCCCN)C(=O)N[C@@H](C(=O)N[C@H](CCC(N)=O)C(=O)NCC(=O)N[C@H](CC(C)C)C(=O)N[C@H](CC(C)C)C(=O)N1CCC[C@@H]1C(=O)N[C@H](CCCCN)C(=O)N[C@H](CC(C)C)C(=O)N[C@H](C)C(=O)N1CCC[C@@H]1C(=O)N[C@H](CCCNC(=N)N)C(=O)N[C@@H](C(=O)N[C@H](CC(=O)O)C(=O)N[C@H](Cc1ccc(O)cc1)C(=O)O)[C@H](C)O)[C@H](C)CC [D-CAP-18, Glrkrlrkfrnkikeklkkigqkiqgllpklaprtdy] (H-G[dL][dR][dK][dR][dL][dR][dK][dF][dR][dN][dK][dI][dK][dE][dK][dL][dK][dK][dI]G[dQ][dK][dI][dQ]G[dL][dL][dP][dK][dL][dA][dP][dR][dT][dD][dY]-OH)	137.4	–
CC[C@@H](C)[C@@H](NC(=O)[C@@H](CCCCN)NC(=O)[C@@H](CCCCN)NC(=O)[C@@H](CC(C)C)NC(=O)[C@@H](CCCCN)NC(=O)[C@@H](CCC(=O)O)NC(=O)[C@@H](CCCCN)NC(=O)[C@H](NC(=O)[C@@H](CCCCN)NC(=O)[C@@H](CC(N)=O)NC(=O)[C@@H](CCCNC(=N)N)NC(=O)[C@@H](Cc1ccccc1)NC(=O)[C@@H](CCCCN)NC(=O)[C@@H](CCCNC(=N)N)NC(=O)[C@@H](CC(C)C)NC(=O)[C@@H](CCCNC(=N)N)NC(=O)[C@@H](CCCCN)NC(=O)[C@@H](CCCNC(=N)N)NC(=O)[C@@H](CC(C)C)NC(=O)CN)[C@H](C)CC)C(=O)NCC(=O)N[C@H](CCC(N)=O)C(=O)N[C@H](CCCCN)C(=O)N[C@@H](C(=O)N[C@H](CCC(N)=O)C(=O)NCC(=O)N[C@H](CC(C)C)C(=O)N[C@H](CC(C)C)C(=O)N1CCC[C@@H]1C(=O)N[C@H](CCCCN)C(=O)N[C@H](CC(C)C)C(=O)O)[C@H](C)CC [D-CAP-18_31, Glrkrlrkfrnkikeklkkigqkiqgllpkl] (H-G[dL][dR][dK][dR][dL][dR][dK][dF][dR][dN][dK][dI][dK][dE][dK][dL][dK][dK][dI]G[dQ][dK][dI][dQ]G[dL][dL][dP][dK][dL]-OH)	25.3	–
GLRKRLRKFRNKIKEKLKKIGQKIQGLLPKLAPRTDY [CAP-18]	39.6	–
H-GLRKRLRKFRNKIKEKLKKIGQKIQGLLPKL-OH [CAP-18_31]	43.2	–
PEPTIDE1{G.L.R.K.R.L.R.K.F.R.N.K.I.K.E.K.L.K.K.I.G.Q.K.I.Q.G.L.L.P.K.L.A.P.R.T.D.Y}$$$$V2.0	–	92

Reference: paper PMC12382740 (Antibiotics, 2025)
